In paper PMC11372095:
Results are given in words; binding and its absence hold for the method and conditions named. Binding seen in cells or lysates may run through a third protein. Some results given as binding are weak or reduced against the parent protein; the word gives no strength. Blank lines part the entries; values can stand above or below the molecule they belong to.

Sequences of proteins named here, by UniProt entry; tags and fusion partners are left off. Residues count along the entry.
UniProt O00206, residues 24-839: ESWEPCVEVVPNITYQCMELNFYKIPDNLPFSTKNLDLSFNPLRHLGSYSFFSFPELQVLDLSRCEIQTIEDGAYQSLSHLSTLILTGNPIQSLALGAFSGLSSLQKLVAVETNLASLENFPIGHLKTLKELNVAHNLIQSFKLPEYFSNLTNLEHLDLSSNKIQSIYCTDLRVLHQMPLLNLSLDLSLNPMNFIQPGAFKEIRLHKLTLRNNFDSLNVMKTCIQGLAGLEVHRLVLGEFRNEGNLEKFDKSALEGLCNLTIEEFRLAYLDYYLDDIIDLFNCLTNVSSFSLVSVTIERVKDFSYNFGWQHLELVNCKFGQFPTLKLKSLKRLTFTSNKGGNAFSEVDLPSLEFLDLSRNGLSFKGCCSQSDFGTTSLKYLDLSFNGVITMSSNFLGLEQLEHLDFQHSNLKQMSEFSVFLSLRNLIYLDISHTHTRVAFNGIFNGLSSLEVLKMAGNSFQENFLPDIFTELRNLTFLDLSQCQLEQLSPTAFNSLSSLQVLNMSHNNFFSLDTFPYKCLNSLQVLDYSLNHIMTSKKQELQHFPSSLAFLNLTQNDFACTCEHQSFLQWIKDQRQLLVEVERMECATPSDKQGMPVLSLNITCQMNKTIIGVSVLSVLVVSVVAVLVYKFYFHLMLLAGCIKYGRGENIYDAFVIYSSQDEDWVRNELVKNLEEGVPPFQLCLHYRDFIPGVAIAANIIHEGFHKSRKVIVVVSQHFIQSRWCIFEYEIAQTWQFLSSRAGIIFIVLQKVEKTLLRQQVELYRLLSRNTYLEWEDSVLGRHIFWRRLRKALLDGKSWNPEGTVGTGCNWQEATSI

Legend:
[1] = target: T1, recombinant human MD-1 (myeloid differentiation protein 1, lymphocyte antigen 86) (human) (UniProt O95711); assay: co-IP; human neutrophils incubated with recombinant human MD-1 (75 ng/mL) for 60 min at 37 °C, washed, lysed; anti-MD-1 antibody on Protein A magnetic beads, normal IgG as control; blot for TLR4; only the target purified
T1 sequence: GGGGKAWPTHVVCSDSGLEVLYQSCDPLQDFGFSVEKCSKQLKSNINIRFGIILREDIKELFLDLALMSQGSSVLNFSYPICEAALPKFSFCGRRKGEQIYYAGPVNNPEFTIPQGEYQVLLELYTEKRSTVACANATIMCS

[2] = target: Toll-like receptor 4 (TLR4) on human peripheral blood neutrophils (human (endogenous in peripheral blood neutrophils)) (UniProt O00206); assay: co-IP; human neutrophils incubated with recombinant human MD-1 (75 ng/mL) for 60 min at 37 °C, washed, lysed; anti-TLR4 antibody on Protein A magnetic beads, normal IgG as control; blot for MD-1; only the binder purified
[3] = target: Toll-like receptor 4 (TLR4) on human peripheral blood neutrophils (human (endogenous in peripheral blood neutrophils)) (UniProt O00206); assay: proximity ligation; Duolink PLA on fixed, permeabilised neutrophils of healthy volunteers incubated with recombinant human MD-1 (50 or 75 ng/mL, or 75 ng/mL with 1 μM TAK-242) for 60 min at 37 °C; primary antibodies against MD-1 and TLR4; single antibodies as negative controls; only the binder purified
[4] = target: Toll-like receptor 4 (TLR4) on human peripheral blood neutrophils (human (endogenous in peripheral blood neutrophils)) (UniProt O00206); assay: proximity ligation; Duolink PLA on fixed, permeabilised, freshly isolated neutrophils of carotid plaque patients, no MD-1 added; primary antibodies against MD-1 and TLR4

binding [1]: binds
Molecule: Toll-like receptor 4 (TLR4) on human peripheral blood neutrophils (from UniProt O00206 24-839)

binding [2]: binds
binding [3]: binds
B1: recombinant human MD-1 (myeloid differentiation protein 1, lymphocyte antigen 86) (protein, UniProt O95711 21-162)
chain: T1 sequence

binding [4]: binds
B2: endogenous secreted MD-1 (LY86) of carotid plaque patients (protein, UniProt O95711 21-162)
chain: T1 sequence
